Measurements reported in US20240209080A1, “FOLR1 BINDING AGENTS, CONJUGATES THEREOF AND METHODS OF USING THE SAME” (PROFOUNDBIO US CO., priority 2021, published 2024).
No constants are given. Whether binding was seen depends on the method and setting. Some entries that bind do so weakly or less than the wild type.

Sequences of proteins named here, by UniProt entry; tags and fusion partners are left off. A change or cut given only in a name is not applied to a line headed by its entry. Residues count along the entry.
UniProt P15328: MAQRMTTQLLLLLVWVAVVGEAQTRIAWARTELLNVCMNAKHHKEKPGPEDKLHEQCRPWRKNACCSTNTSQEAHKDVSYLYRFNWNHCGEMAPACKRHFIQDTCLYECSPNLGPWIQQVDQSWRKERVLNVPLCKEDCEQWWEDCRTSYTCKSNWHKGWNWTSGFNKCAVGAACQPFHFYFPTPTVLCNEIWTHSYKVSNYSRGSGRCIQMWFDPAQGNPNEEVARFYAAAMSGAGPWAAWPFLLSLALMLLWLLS
human FOLR1 on cells (Hela, RPTEC/TERT1, OVCAR3, OV90, IGROV-1, JEG-3, KB, NCI-H441): residues 25-234 of P15328
human FOLR1 protein, His Tag (ACRO-FO1-H52H1): residues 25-233 of P15328

How the values were obtained:
[1] = molecular target: human FOLR1 on cells (Hela, RPTEC/TERT1, OVCAR3, OV90, IGROV-1, JEG-3, KB, NCI-H441) (human) (UniProt P15328); test: FACS on Hela and RPTEC/TERT1 cells, purified antibody
[2] = molecular target: human FOLR1 on cells (Hela, RPTEC/TERT1, OVCAR3, OV90, IGROV-1, JEG-3, KB, NCI-H441) (human) (UniProt P15328); test: flow cytometry on Hela cells, transfection supernatant
[3] = molecular target: human FOLR1 on cells (Hela, RPTEC/TERT1, OVCAR3, OV90, IGROV-1, JEG-3, KB, NCI-H441) (human) (UniProt P15328); test: flow cytometry on RPTEC/TERT1 cells, transfection supernatant
[4] = molecular target: human FOLR1 protein, His Tag (ACRO-FO1-H52H1) (human) (UniProt P15328); test: ELISA, coated human FOLR1-His, transfection supernatant
[5] = molecular target: human FOLR1 on cells (Hela, RPTEC/TERT1, OVCAR3, OV90, IGROV-1, JEG-3, KB, NCI-H441) (human) (UniProt P15328); test: flow cytometry, HEK293 transfection supernatant on RPTEC/TERT1 cells, PE goat anti-human IgG
[6] = molecular target: human FOLR1 on cells (Hela, RPTEC/TERT1, OVCAR3, OV90, IGROV-1, JEG-3, KB, NCI-H441) (human) (UniProt P15328); test: flow cytometry, HEK293 transfection supernatant on Hela cells, PE goat anti-human IgG
[7] = molecular target: cynomolgus FOLR1 protein, His Tag (ACRO, F01-C52H8) (cynomolgus); test: ELISA, coated cynomolgus FOLR1-His, transfection supernatant
[8] = molecular target: human FOLR1 on cells (Hela, RPTEC/TERT1, OVCAR3, OV90, IGROV-1, JEG-3, KB, NCI-H441) (human) (UniProt P15328); test: flow cytometry, purified antibody on RPTEC/TERT1 cells, 50 to 0.00001 ug/ml
[9] = molecular target: human FOLR1 on cells (Hela, RPTEC/TERT1, OVCAR3, OV90, IGROV-1, JEG-3, KB, NCI-H441) (human) (UniProt P15328); test: flow cytometry, purified antibody on Hela cells, 50 to 0.00001 ug/ml

Measured: binding

B1: anti-FOLR1 antibody F40 (antibody, V domains shown)
VH: EVQLLESGGGVVQPGRSLRLSCAASGFTFSSYAMHWVRQAPGKGLEWVAVISYDGSNKYYADSVKGRFIISRDNSKNTVYLQMNSLRAEDTAVYYCARPTYVFTYTGSSFDYWGQGTQVTVSS
VL: DIQVTQSPSSLSASLGDTVSITCRASRGLTDSVAWYQQKPGQAPKLLIYAASTLQSGVPSRFGGSGSGSYFTLTITSLQPEDVATYYCQNYKSAPWTFGQGTKVEIK
binds: all assays above
